Source: US11464749B2, “Bismuth-thiol compositions and methods of use” (Microbion Corporation, priority 2018, dated 2022)

Test system: fully differentiated human airway epithelium (MUCILAIR™)
Test: Acute toxicity on […] (LDH release, TEER, morphology)
Format: cell-based
Method: Controlled in vitro evaluation of BisEDT, with respect to potential cytotoxicity on fully differentiated human airway epithelium was carried out. Both solubilized and solid (powder/particulate) forms of BisEDT were evaluated for cytotoxicity by Epithelix, a contract research organization (CRO) specializing in this form of cytotoxicity evaluation utilizing a proprietary, in vitro fully differentiated human airway epithelium test system ([…]™) The […]™ system facilitated evaluation of cytotoxicity through both LDH release (from the culture medium side) and trans-epithelial electrical resistance (TEER) from the apical/air-exposed side as well as pre- and post-exposure microscopic examination for morphological changes (FIG. 13).
The assay system used in this study is Epithelix's proprietary technology […]™ […]™ is a fully differentiated and ready-to-use 3D model of human airway epithelium, constituted with primary human epithelial cells freshly isolated from nasal, tracheal or bronchial biopsies. […]™ (FIG. 24), is not only morphologically and functionally differentiated, but can also be maintained in a homeostatic state for a long period of time (Huang et al., 2009).
[…]™ is composed of basal cells, ciliated cells and mucus cells. […] A large panel of cytokines, chemokines and metalloproteinases has been detected in […]™ (e.g. IL-8, IL-6, GM-CSF, MMP-9, GRO-α). […]
During the study, inserts were maintained in a CO2 incubator (37° C., 5% CO2, 100% humidity). The following end-points were determined: • Tissue integrity monitoring: Trans-Epithelial Electrical Resistance (TEER) measurement (quantitative) at D0, D1 and D2. • Cytotoxicity monitoring: LDH test (quantitative) at D0, D1 and D2. • Morphology: cellular and tissue integrity examined under contrast microscope at D0, D1 and D2.
Three days before the experiment, the following quality controls were performed on each epithelium: • Washing: inserts were washed with 200 μl of […]™ culture medium. […] The presence of mucus was detected by the refractive aspect of the apical surface. […]

C1C[S][Bi]([S]CC[S][Bi]2[S]CC[S]2)[S]1 [BisEDT, bismuth-1,2-ethanedithiol]
highest non-toxic concentrations relative to MIC (particulate or solubilized BisEDT): 25-345 fold
highest tested concentration (20.83 μg/mL) relative to MIC for M. avium (solubilized BisEDT): 2.5-10 fold
highest tested concentration (20.83 ug/mL) relative to MICs against most tested CF bacterial isolates (solubilized BisEDT): 20-347 fold
